The filed quantity is “Percent Effect” (%).
The controls that fix the scale are not given in the record; negative values are as filed.
The compounds are a random part of those screened.

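Whole-parasite assay of Trypanosoma brucei over 72 hours; the read-out is not stated. Compounds at 30 µM. Higher reads as stronger inhibition (inferred: compounds with an IC50 in retests scored well above the rest). Values scatter widely below zero; nearly all retest evidence comes from the higher of the two concentrations used. About 64,000 compounds were tested under these conditions; 1.5% (about 940) showed 50% or more at least once.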

| SMILES | percent effect |
|---|---|
| `OC1CCN(Cc2ccc(CNc3ccc(Cl)cn3)cc2)CC1` | 0.9521 |
| `Cn1cnnc1CNC(=O)C1CCCN(Cc2cccc(F)c2)C1` (stereo not given) | -19.99 |
| `O=C(O)C(F)(F)F.[H][C@@]12C[C@@H](C)O[C@]1([H])CN(C(=O)c1cc(C)nn1CC)C2` | 3.708 |
| `CCN(CC)c1ccc(CNC(=O)N2CCC(C#N)CC2)cc1` | 36.77 |
| `CCOCCNC(=O)[C@@H]1CCCN1c1nccc(Nc2ccccc2)n1` | 3.34 |
| `Cn1cnc(S(=O)(=O)NCCCN2CCCCCC2=O)c1Cl` | -15.2 |
| `CC(C)COc1ccccc1C(N)CC(C)C` (stereo not given) | -18.48 |
| `CCCc1nc(C(=O)N2CCn3nc(C(=O)OC)cc3C2)cs1` | -32.07 |
| `Cc1cccc(CN2CCC3(CCN(c4ncccn4)CC3)C2=O)c1.O=C(O)C(F)(F)F` | 10.29 |
| `CN(C)c1ncccc1CNC(=O)N1CCCC1CN1CCCC1` (stereo not given) | -21.61 |
| `Cc1cnc(N2CCCOC(CN3CCCCC3)C2)nc1` (stereo not given) | -22.29 |
| `Cc1ccc(C(NC(=O)CN2CCc3cncnc3C2)C2CC2)cc1` (stereo not given) | 8.878 |
| `CN(CC(=O)Nc1ccc(Br)cn1)C(=O)C(C)(C)C` | -4.568 |
| `CC/N=c1\nc(NCC)nc2n1C(O)(Nc1ccc(C)cc1C)CS2` (stereo not given) | -3.315 |
| `Cc1ccsc1C(=O)NCc1ccnc(OCC(F)(F)F)c1` | 11.9 |
| `COCCN(CCOC)C(=O)c1c[nH]nc1-c1cccc(F)c1` | -60.38 |
| `Cc1nc(C2CCNCC2)cc(N2CCOc3ccccc3C2)n1` | -9.769 |
| `Cc1ccccc1C1CCN(C(=O)CCNC(=O)C(C)(C)C)C1` (stereo not given) | -16.11 |
| `[H][C@@]12CCN(C(=O)NC(C)C)CC[C@]1(C(=O)Nc1cccnc1)CCN2C` | -97.82 |
| `CCOC(=O)c1cnn(C2CCN(C(=O)CCC(C)C)CC2)c1N` | -8.479 |
| `Cc1ccc(-c2nn3c(nc2=O)-c2ccccc2NC3C(=O)O)cc1C` (stereo not given) | -23.62 |
| `CC(O)CN1CCN(C(=O)c2cn(-c3ccccc3Cl)nn2)CC1` (stereo not given) | 10.58 |
| `COc1cc(C)c(C(C)NC(=O)NCCCn2cncn2)cc1OC` (stereo not given) | 10.38 |
| `[H][C@@]12CCN(CC3CC3)[C@@]1([H])CCN2C(=O)c1ccoc1` | -18.07 |
| `CC(C)CCN1CC2(CCCN(C(=O)c3cscn3)C2)CCC1=O` (stereo not given) | 4.098 |
| `O=C(O)C(F)(F)F.[H][C@@]12CN(CC3CCOCC3)C[C@]1([H])C(=O)N(c1ccsc1)C2` | -27.46 |
| `[H][C@]12CC[C@]([H])(CN(c3ncccn3)C1)N(Cc1ccc(S(C)(=O)=O)cc1)C2` | -59.99 |
| `O=C(c1ccoc1)N1CCC(NCc2cccnc2)CC1` | 3.472 |
| `COCC(=O)Nc1nnc2n(Cc3cccc(OC)c3)[nH]c(C)c1-2` | -0.02111 |
| `Cc1nc(N2CCN(C(=O)C3CC3)CC2)c2c(n1)c(C)nn2C` | 24.92 |
| `CC(=O)Nc1nc(CN2CCCC2c2cnn(C)c2)cs1` (stereo not given) | 12.57 |
| `COc1cc(C)c(-c2ccc(F)c3c2OC(CN)C3)cc1C` (stereo not given) | -14.37 |
| `Cc1ccc(OCC(C)NS(C)(=O)=O)cc1C` (stereo not given) | -30.31 |
| `Cc1cccc(S(=O)(=O)NC(=O)CN(C)Cc2ccccc2)c1` | -36.04 |
| `CCOCCC(=O)NCC1CCCO1` (stereo not given) | -11.94 |
| `OCC1CCCN1c1cc(NCc2ccc(Cl)s2)ncn1` (stereo not given) | 22.11 |
| `Cl.Cl.[H][C@@]12CC[C@H](COCc3csc(C)n3)O[C@]1([H])CCN2` | -23.86 |
| `CCc1oc(C(=O)NCCSc2ncn[nH]2)cc1CN1CCCC1` | -57.29 |
| `CCCNC(=O)C1(Cc2cc(-c3ccccc3)no2)CCN(C(C)=O)C1` (stereo not given) | -4.894 |
| `Cn1cc(CN2CCCCC2c2ccc(-c3cnn(C)c3)nc2)cn1` (stereo not given) | -7.284 |
| `Cc1nnc2n1CCN(C(=O)c1cc(C)n(-c3ccccn3)c1C)C2` | 23.81 |
| `Cn1ncc2c(N3CCC(CC(=O)N4CCCC4)CC3)ncnc21` | -18.01 |
| `FC(F)(F)Sc1ccc(NCc2nnc(C3CC3)o2)cc1` | -2.772 |
| `Cc1nc(-c2ccc(C(=O)O)cc2)cc(C2CCN(C(C)C)CC2)n1` | -4.463 |
| `[H][C@@]12CS(=O)(=O)C[C@]1([H])NCCN2C(=O)COc1ccc2cccnc2c1` | -67.22 |
| `Cc1nnc(C(C)NCC2(c3ccc(F)cc3)CCCCC2)o1` (stereo not given) | 9.19 |
| `Cc1cc(N2CCC(NC(=O)C3CC3)CC2)nc(-c2ccncc2)n1` | 5.271 |
| `O=C(NS(=O)(=O)c1ccc2c(c1)CCC2)C1COCCO1` (stereo not given) | -91.14 |

Once more, the final 4:

{"smiles": "[H][C@@]12CS(=O)(=O)C[C@]1([H])NCCN2C(=O)COc1ccc2cccnc2c1", "percent effect": -67.22}
{"smiles": "Cc1nnc(C(C)NCC2(c3ccc(F)cc3)CCCCC2)o1", "stereo": "stereo not given", "percent effect": 9.19}
{"smiles": "Cc1cc(N2CCC(NC(=O)C3CC3)CC2)nc(-c2ccncc2)n1", "percent effect": 5.271}
{"smiles": "O=C(NS(=O)(=O)c1ccc2c(c1)CCC2)C1COCCO1", "stereo": "stereo not given", "percent effect": -91.14}

Measurements from “University of Dundee, Small-Polar-MMV Screening Library” (2021), ChEMBL document CHEMBL3988442.